According to PubChem BioAssay AID504444 (National Center for Advancing Translational Sciences (NCATS), 2011):
The campaign covered roughly 360,000 compounds. About 7,500 (2.1%) were called active. Inconclusive means that the source gave no clear call. Such entries were picked first, then a sample of the others. Calls come from the whole dose curve; as a rule, active = well fitted inhibition curve with a large enough effect; inconclusive = small, poorly fitted or top-dose-only effect, or effect the other way; inactive = flat fitted curve, though single readings scatter. A potency beside an inconclusive call is a rough fit, not a confirmed value.

assay: Nrf2 qHTS screen for inhibitors; conditions: A549 ARE-Fluc reporter, luciferase luminescence, 18-24 h; activity change, negative = inhibition: at 46 µM (top of the series); note: nearly all actives have a fitted effect of over 60% in size
Summary of the method: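 Two sequential reads on A549 ARE_Fluc cells exposed to compound for 18-24 h: a CellTiter-Fluor fluorescence read for viability, then a luciferase luminescence read for Nrf2/ARE activity.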
% is set by controls: 0 for no effect and ±100 for the full control effect; potency is the fitted concentration of half-maximal effect.

Row | SMILES | Potency | activity change, negative = inhibition
1 | O=S(=O)(Nc1cccc(F)c1)c1ccc2[nH]c3c(c2c1)CCCCC3 | inconclusive: 29.1 µM [falling, single point] | –
2 | CCn1c(SCC(=O)Nc2nccs2)nnc1-c1ccc(C)cc1 | inconclusive: 2.06 µM [falling, partial curve, poor fit] | –
3 | CC(C)CC(=O)N1CCN(S(=O)(=O)c2ccc3ccccc3c2)CC1 | inconclusive: 16.4 µM [falling, single point] | –
4 | Cn1c(=O)n(C)c2cc(NC(=O)c3cc4ccccc4o3)ccc21 | inconclusive: 18.4 µM [falling, partial curve, poor fit] | –
5 | Cc1cccc(NC(=O)CSc2nc3ccccc3c3nc(CCc4c(C)n[nH]c4C)nn23)c1 | active: 10.3 µM | –
6 | CN(CC(=O)O/N=C(\N)c1cccc([N+](=O)[O-])c1)S(=O)(=O)c1ccccc1 | inconclusive: 16.4 µM [falling, single point] | –
7 | O=C(CN1CCC2(CC1)OCCO2)c1c[nH]c2ccccc12 | inconclusive: 7.31 µM [activator, partial curve, poor fit] | –
8 | COc1ccc(Nc2nc3ccccc3nc2NS(=O)(=O)c2ccc(Cl)cc2)cc1OC | inconclusive: 7.31 µM [falling, partial curve] | –
9 | Cc1ccc(NC(=O)COc2ccc(S(=O)(=O)N3CCOCC3)cc2)cc1 | inconclusive: 0.651 µM [activator, partial curve, poor fit] | –
10 | CN1C(=O)S/C(=C/c2ccc(OCc3cccc(C(=O)O)c3)cc2)C1=O | inconclusive: 0.259 µM [activator, full curve] | –
11 | CC(C)C(=O)Nc1ccc(C(=O)Nc2nnc(C(C)(C)C)s2)cc1 | inconclusive: 13 µM [falling, partial curve] | –
12 | CCOC(=O)c1c(C)[nH]c(C)c1S(=O)(=O)N1CCCC(C(=O)Nc2cccc(C)n2)C1 (stereo unspecified) | inconclusive: 2.91 µM [activator, partial curve, poor fit] | –
13 | c1csc(-c2ccc(N3CCOCC3)nn2)c1 | inconclusive: 0.326 µM [activator, full curve, poor fit] | –
14 | Cc1ccccc1Nc1c(-c2ccccc2)nc2ncccn12 | inconclusive: 16.4 µM [activator, partial curve, poor fit] | –
15 | CCCCOc1ccc(C(=O)NCCc2ccccc2)cc1 | inconclusive: 11.6 µM [activator, partial curve] | –
16 | CCc1ccc(S(=O)(=O)c2cn(C)c3cc(F)c(F)cc3c2=O)cc1 | – | inactive: 2%
17 | Cc1ccc(NC(=O)Cn2c(-c3nonc3N)nc3ccccc32)cc1C | inconclusive: 18.4 µM [activator, single point] | –
18 | O=C(OCCN1C(=O)c2cccc3c(N4CCOCC4)ccc(c23)C1=O)c1ccc(Cl)cc1Cl | inconclusive: 20.6 µM [falling, partial curve] | –
19 | CC(C)CNC(=O)c1ccccc1-c1ccccc1C(=O)O | inconclusive: 25.9 µM [falling, single point] | –
20 | O=C(CNC(=O)c1ccccc1F)OCc1cc(=O)n2nc(C3CC3)sc2n1 | inconclusive: 29.1 µM [activator, single point] | –
21 | COc1cc(/C=N/NC(=O)Cn2nc([N+](=O)[O-])cc2C)cc(Br)c1OCc1ccccc1 | inconclusive: 20.6 µM [falling, single point] | –

Arranged by formula weight (ascending): five of the compounds above.
Row | SMILES | Potency | activity change, negative = inhibition
7 | O=C(CN1CCC2(CC1)OCCO2)c1c[nH]c2ccccc12 | inconclusive: 7.31 µM [activator, partial curve, poor fit] | –
4 | Cn1c(=O)n(C)c2cc(NC(=O)c3cc4ccccc4o3)ccc21 | inconclusive: 18.4 µM [falling, partial curve, poor fit] | –
11 | CC(C)C(=O)Nc1ccc(C(=O)Nc2nnc(C(C)(C)C)s2)cc1 | inconclusive: 13 µM [falling, partial curve] | –
9 | Cc1ccc(NC(=O)COc2ccc(S(=O)(=O)N3CCOCC3)cc2)cc1 | inconclusive: 0.651 µM [activator, partial curve, poor fit] | –
21 | COc1cc(/C=N/NC(=O)Cn2nc([N+](=O)[O-])cc2C)cc(Br)c1OCc1ccccc1 | inconclusive: 20.6 µM [falling, single point] | –

(more compounds)

Row | SMILES | Potency | activity change, negative = inhibition
22 | CC(C)CCN(C(=O)Nc1ccc(Cl)cc1)C1CCN(C(C)C)CC1 | inconclusive: 29.1 µM [activator, single point] | –
23 | COc1ccc([C@H]2CC(=O)C=C(c3ccc(Cl)c(C(F)(F)F)c3)C2)cc1OC | active: 16.4 µM | –
24 | COc1cc(OC)cc(C(=O)Nc2ccc3c(c2)OCCO3)c1 | inconclusive: 7.31 µM [activator, partial curve, poor fit] | –
25 | CN(C)c1ccc(C=c2c3ccccc3n3c2c2ccccc2[n+]3C)cc1 | active: 8.2 µM | –
26 | COc1cc(CNc2ccc(O)cc2)cc(Br)c1OCc1ccccc1F | active: 5.17 µM | –
27 | CCCN(CCC)CCCNC(=O)c1nn(-c2cccc(OC)c2)c(=O)c2ccccc12 | inconclusive: 18.4 µM [activator, partial curve, poor fit] | –
28 | CN(CC(=O)Nc1cccc(F)c1)C(=O)c1ccc(N2CCCC2)c([N+](=O)[O-])c1 | inconclusive: 29.1 µM [falling, single point] | –
29 | COc1ccccc1C(=O)NCCCNC(=O)c1ccccn1 | inconclusive: 29.1 µM [falling, single point] | –
30 | COc1ccc(C(=O)c2cc3cccc(OC)c3o2)cc1 | inconclusive: 16.4 µM [activator, partial curve] | –
31 | Cc1ccc(C(=O)N2N=C(c3ccc(Br)cc3)CC2c2ccccc2O)cc1 (stereo unspecified) | inconclusive: 29.1 µM [falling, single point] | –
32 | CCn1c2ccccc2c2nnc(SCC(=O)OCN3C(=O)c4ccccc4C3=O)nc21 | – | inactive: 12.2%
33 | CCC(C)Sc1nnc(Cc2cc(=O)[nH]c(=O)[nH]2)n1-c1ccc(F)cc1 (stereo unspecified) | inconclusive: 29.1 µM [activator, partial curve, poor fit] | –
34 | O=C(CNS(=O)(=O)c1ccc([N+](=O)[O-])cc1)N/N=C\c1ccc(O)cc1 | – | inactive: -7.77%
35 | O=C1c2ccccc2S(=O)(=O)c2cc(N3CCOCC3)ccc21 | inconclusive: 1.03 µM [activator, partial curve] | –
36 | Cn1c(SCC(=O)Nc2ccc(N3CCOCC3)c(Cl)c2)nnc1-c1ccccc1 | inconclusive: 6.51 µM [falling, partial curve, poor fit] | –
37 | COc1ccccc1NS(=O)(=O)c1cccc(NC(=O)c2[nH]c(C)c(C(C)=O)c2C)c1 | inconclusive: 14.6 µM [falling, partial curve, poor fit] | –
38 | O=C(Nc1ccc2c(c1)OCO2)c1cnc2n(c1=O)CCS2 | inconclusive: 2.59 µM [activator, full curve, poor fit] | –
39 | COCCN(C(=O)COC(=O)c1ccccc1Cc1ccccc1)c1c(N)n(Cc2ccccc2)c(=O)[nH]c1=O | – | inactive: -3.86%
40 | CC(Nc1ccc(-c2nc(-c3ccco3)no2)cc1[N+](=O)[O-])c1ccccc1 (stereo unspecified) | inconclusive: 29.1 µM [activator, single point] | –
41 | CCS(=O)(=O)c1oc(-c2ccc(F)cc2)nc1S(=O)(=O)c1ccc(Br)cc1 | inconclusive: 29.1 µM [falling, single point] | –
42 | O=C(Nc1ccc(Cl)cc1)Nc1ccc(Oc2cccnc2)nc1 | inconclusive: 29.1 µM [falling, single point] | –

Row | SMILES | Potency | activity change, negative = inhibition
43 | COc1ccc(-c2noc(CCC(=O)N3CCN(c4cccc(F)c4)CC3)n2)cc1 | inconclusive: 25.9 µM [falling, single point] | –
44 | O=C(Nc1ccc(F)cc1)Nc1ccc(N2CCOCC2)c2nonc12 | inconclusive: 1.64 µM [activator, full curve] | –
45 | CCCCN(CCCC)CCNC(=O)CN1C(=O)COc2ccc(S(=O)(=O)N3CCC(C)CC3)cc21 | inconclusive: 13 µM [activator, partial curve, poor fit] | –
46 | COc1cc(NC(=O)c2cc3ccc4cccnc4c3[nH]2)cc(OC)c1OC | inconclusive: 6.51 µM [falling, single point] | –
47 | CCOc1ccc(C(=O)N2CCCC(c3nc(-c4ccc(C)o4)no3)C2)cc1 (stereo unspecified) | inconclusive: 32.6 µM [falling, single point] | –
48 | Cc1ccc(S(=O)(=O)N(C)C)cc1NC(=O)c1cc(C(C)(C)C)nn1Cc1ccccc1 | active: 10.3 µM | –
49 | CC(C)(C)c1csc(NC(=O)C2=COCCO2)n1 | inconclusive: 3.66 µM [activator, full curve] | –
50 | CC(C)N(CCNC(=O)C1CCCN(c2ncnc3c2nc2n3CCCCC2)C1)Cc1ccccc1 (stereo unspecified) | inconclusive: 29.1 µM [activator, single point] | –
51 | CN1C(=O)c2cccc3c(S(=O)(=O)NCCc4ccccc4)ccc1c23 | inconclusive: 23.1 µM [falling, single point] | –
52 | CCc1nn2c(=O)cc(COC(=O)C3CCCCC3)nc2s1 | inconclusive: 0.0326 µM [falling, full curve, poor fit] | –
53 | O=C(NCC(=O)N1CCN(S(=O)(=O)c2ccc3c(c2)OCCO3)CC1)c1ccccc1Cl | active: 11.6 µM | –
54 | CC(=O)Nc1cccc(-c2cnc3ccccc3n2)c1 | inconclusive: 3.66 µM [activator, full curve] | –
55 | COc1ccccc1NS(=O)(=O)c1cc(NC(=O)c2cc[n+]([O-])cc2)ccc1N1CCCC1 | inconclusive: 18.4 µM [falling, partial curve, poor fit] | –
56 | C/C(=N\NC(=O)c1ccc(Cn2cc(Br)cn2)o1)c1cccc(NC(=O)C(C)(C)C)c1 | inconclusive: 2.91 µM [falling, partial curve, poor fit] | –
57 | CCn1cc(C(=O)NCc2ccccc2OC)c(=O)c2cc(S(=O)(=O)N3CCCCCC3)ccc21 | inconclusive: 29.1 µM [falling, partial curve, poor fit] | –
58 | COCC(C)n1c(C)cc(C(=O)COC(=O)c2oc3ccccc3c2C)c1C (stereo unspecified) | inconclusive: 25.9 µM [falling, partial curve, poor fit] | –
59 | Cc1ccc(NC(=S)N(C)C(c2ccccc2)c2ccccc2)cc1C | inconclusive: 29.1 µM [falling, single point] | –
60 | CCn1nc(C(=O)NNC(=O)c2cc(Cl)ccc2OC)c2ccccc2c1=O | inconclusive: 16.4 µM [falling, partial curve] | –
61 | Cc1ccc(C2CC(=O)NC(SCc3ccccc3)=C2C#N)o1 (stereo unspecified) | inconclusive: 14.6 µM [falling, single point] | –
